Data taken from PubChem BioAssay AID2718 (Broad Institute, 2010).
Among all 320,000 compounds or so, about 480 (0.15%) were called active. This list was built around the results that the source calls inconclusive (neither active nor inactive); the mix of calls is not that of the screen. No stated cut-off is given here; in the data, active means inhibition above about 26% (passing the limit was not always enough); inconclusive means no clear call, values can overlap the other calls.

Chains of the proteins cited; added tags and fusions are not shown.
UniProt O15379, whole entry, looked up: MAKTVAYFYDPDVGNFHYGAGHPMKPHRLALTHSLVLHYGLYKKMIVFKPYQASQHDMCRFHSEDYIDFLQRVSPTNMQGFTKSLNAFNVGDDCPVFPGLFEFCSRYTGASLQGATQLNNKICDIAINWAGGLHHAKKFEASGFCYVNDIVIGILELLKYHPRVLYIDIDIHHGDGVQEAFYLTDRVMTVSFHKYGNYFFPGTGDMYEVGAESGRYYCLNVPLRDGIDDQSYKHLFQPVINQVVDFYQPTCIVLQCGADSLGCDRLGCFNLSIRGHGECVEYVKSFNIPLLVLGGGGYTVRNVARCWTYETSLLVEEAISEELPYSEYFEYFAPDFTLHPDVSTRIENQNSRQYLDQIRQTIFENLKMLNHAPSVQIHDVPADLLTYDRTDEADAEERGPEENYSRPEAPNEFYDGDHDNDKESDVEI

Target: Histone deacetylase 3 (Homo sapiens) (UniProt O15379)
Experiment: HDAC3 deacetylase inhibitors, primary screen, biochemical, fluorescence, cell-free homogeneous (AID 2718)
Conditions: recombinant HDAC3, fluorogenic peptide/trypsin coupled, at 8.3 µM, hits give high values

SMILES	inhibition
O=C(CSc1nc2ncccc2[nH]1)NC1CCCCC1	inactive: 6.09%
CCN1CCN(c2nc3ccccc3nc2C(C#N)S(=O)(=O)c2ccc(C)c(C)c2)CC1 (stereo unspecified)	inactive: 1.1%
COc1ccc(NC(=O)CSCc2ccc([N+](=O)[O-])cc2)cc1OC	inconclusive: 15.7%
CCN(CC)C(=O)COc1coc(CN2CCN(Cc3ccccc3)CC2)cc1=O	inconclusive: 12.7%
CCCCC/C=C/C1=CC(=O)C[C@H](c2ccc(OC)cc2)C1	inactive: -1.26%
Cc1nn(C(C)C(=O)NC2CCCCC2)c(=O)c2nn(-c3ccccc3)c(C)c12 (stereo unspecified)	inconclusive: 15.3%
Cc1ccc(C)c(OCc2cc(C(=O)N3CCNC(=O)C3)no2)c1	inactive: -2.66%
COc1ccccc1CNC(=O)c1c(-c2ccccc2Cl)noc1C	inconclusive: 19.6%
Fc1ccc(C2=Nn3c(nnc3-c3ccco3)SC2)cc1	inconclusive: 15.6%
Cc1cc(C(=O)Cn2cnc3cc([N+](=O)[O-])ccc3c2=O)c(C)n1CC1CCCO1 (stereo unspecified)	inconclusive: 27.8%
COc1ccc(NC(=O)CN(C)C2CCCCC2)c([N+](=O)[O-])c1	inconclusive: 14.7%
C[C@H](NC(=O)c1nc[nH]c1C(=O)N[C@@H](CCCCNC(=O)OC(C)(C)C)C(=O)OC(C)(C)C)c1ccccc1	inconclusive: 30.7%
COc1ccc(N2CCN(C(=O)COCc3cc(-c4ccc5c(c4)OCO5)on3)CC2)cc1	inconclusive: 10.3%
Cc1c(C)n(CC(O)CNc2ccccc2)c2ccccc12 (stereo unspecified)	inconclusive: 17.9%
COc1cccc(/C=N/n2c(CO)nc3ccccc32)c1OC	inconclusive: 28.2%
Cc1cc(NC(=O)CCCC(=O)NCc2ccccc2)no1	inactive: -0.508%
COc1ccc(/C=C2\CCn3c2nc2cc(C(=O)O)ccc2c3=O)cc1	inactive: 3.36%
COCCNC(=O)/C(C#N)=c1\s/c(=C\c2ccccc2OC(F)F)c(=O)n1Cc1ccccc1	inactive: -5.45%
CC(C)(C)c1cc(-c2nc(N)nc(N)n2)c(O)c(C(C)(C)C)c1	active: 29.1%
O=C(CNC(=O)c1ccco1)OCc1ccc(Br)cc1	inactive: -9.3%
O=C(COC(=O)c1cccc(F)c1)Nc1ccc(Cl)cn1	inactive: -3.8%
CSc1c(SCc2ccccc2)cnn(Cc2ccccc2)c1=O	inconclusive: 28.9%

SMILES	inhibition
COc1ccc(CNC(=O)c2ccc(NC(=O)C3=CSCCO3)cc2)cc1	inconclusive: 15.4%
O=C(CSc1nccc(=O)[nH]1)N1N=C2/C(=C/c3ccco3)CCCC2C1c1ccco1 (stereo unspecified)	inactive: 0.241%
Cc1ccc(NC(=O)c2[nH]cnc2C(=O)NN)cc1	inconclusive: 16.2%
CNC(=O)c1cc(C(=O)c2c(Cl)cccc2Cl)c[nH]1	inconclusive: 13.9%
O=C(NC1CCCC1)c1ccc(CSc2nc3ccncc3n2Cc2ccc(F)cc2)cc1	inactive: 1.74%
C=CCc1c(O)nc(SCC(=O)c2ccccc2)[nH]c1=O	active: 37.5%
CCCCn1c(NC(C)=O)c(C#N)c2nc3ccccc3nc21	inactive: -19.1%
Nc1nc(-c2ccco2)nn1C(=O)c1ccccc1	active: 35.3%
CCCn1c(C)cc(/C=C(\C#N)C(=O)OCC(=O)Nc2cc(OC)c(OC)c(OC)c2)c1C	inconclusive: 26.8%
CC(C)CN(CC(C)C)S(=O)(=O)c1cc([N+](=O)[O-])ccc1N1CCCCCC1	inconclusive: 15.9%
CCOC(=O)c1c(C(C)(C)C)oc2ccc(O)cc12	inconclusive: 20%
O=S(=O)(c1cccc(-c2cn3cc(Cl)ccc3n2)c1)N1CCOCC1	inconclusive: 29.8%
O=C(NCC1CCCO1)c1csc(Nc2cccc3ccccc23)n1 (stereo unspecified)	inconclusive: 23.6%
CCN(CC(=O)Nc1cc(Cl)ccc1C)C(=O)C1CC1	inactive: -0.491%
FC(F)(F)c1cc(CCN2CCNC[C@@H]2CC2CCCCC2)cc(C(F)(F)F)c1	inconclusive: 26.4%
COc1ccc(CCNCC(O)COc2ccc(OC)cc2C(C)(C)C)cc1 (stereo unspecified)	inconclusive: 14.2%
Cc1ccccc1-n1nc2c(c1NC(=O)c1ccc(Br)o1)CSC2	inconclusive: 18.4%
Nc1nc(SCC(=O)c2cc3ccccc3o2)n[nH]1	inconclusive: 27.9%
Nc1c(C(O)(C(F)(F)F)C(F)(F)F)cc(C(O)(C(F)(F)F)C(F)(F)F)c2ccccc12	active: 32.6%
CCCC(C)C(=O)Nc1cc([N+](=O)[O-])ccc1Cl (stereo unspecified)	inactive: 6.12%
Cc1cc(C)c(NC(=O)c2cc(C(=O)O)ccc2C(=O)O)c([N+](=O)[O-])c1	inactive: -1.03%
CCOc1ccccc1OCC(=O)OC(C)C(=O)Nc1ncc(Cl)cc1Cl (stereo unspecified)	inconclusive: 21.2%

SMILES	inhibition
CCOc1ccccc1CN1CCCC(C(=O)c2ccc(OC)c(OC)c2)C1 (stereo unspecified)	inconclusive: 15.1%
CCOC(=O)N1CCN(CC(O)COc2ccc(C)c(C)c2)CC1 (stereo unspecified)	inactive: -3.85%
FC(F)Sc1ccc(N=C2NN=C(c3ccc4c(c3)OCCO4)CS2)cc1	inconclusive: 41.8%
CC[n+]1c(/C=C/C=C/N(C(C)=O)c2ccccc2)sc2cc(OC)ccc21	active: 45.2%
CCC(C)c1ccc(NC(=S)Nc2ccc(OC)cc2C)cc1 (stereo unspecified)	inconclusive: 17.7%
O=C(NNC(=O)C1C2CCC(C2)C1C(=O)O)c1cccc(Cl)c1 (stereo unspecified)	inconclusive: 19.1%
CC[C@H](C)[C@@H](C(=O)NCCCCCCCCCCC(=O)N1CCN(C(=O)OC(C)(C)C)CC1)n1cc(CCCCN=C(NC(=O)OC(C)(C)C)NC(=O)OC(C)(C)C)nn1	inconclusive: 28.2%
COc1cccc2cc(C(=O)C3=C(O)C(=O)N(Cc4ccco4)C3c3cccnc3)oc12 (stereo unspecified)	inconclusive: 23%
O=C(Nc1ccccc1Cl)c1cnccn1	inactive: 6.05%
Nc1cccc2c1C(=O)N(CC(=O)NC13CC4CC(CC(C4)C1)C3)C2=O	inconclusive: 20.8%
Cc1ccc(-c2oc3ccccc3c(=O)c2OCC(=O)O)cc1	inconclusive: 18.1%
Cc1ccc(-n2c(-c3cccnc3)n[nH]c2=S)c(C)c1	inconclusive: 19.4%
O=C(NCc1cccc(Cl)c1)c1cccnc1	inconclusive: 14%
O=[n+]1cc(-c2cc3ccccc3o2)n([O-])c2c1CCCC2	inconclusive: 30.4%
Nc1cn(C2OC(CO)C(O)C2O)c(=O)[nH]c1=O (stereo unspecified)	inconclusive: 17.9%
Cc1ccc(N(C)C(=O)CC(C)S(=O)(=O)c2ccc3c(c2)NC(=O)CO3)cc1 (stereo unspecified)	inactive: 1.39%
Cc1cc2oc(=O)cc(CN3CCOCC3)c2c(C)c1Cl	inactive: 4.43%
CCc1c(O)nc(SCC(=O)N2CCOCC2)n(-c2ccccc2)c1=O	inconclusive: 27.3%
CC(C)Oc1cc(NC(=O)CS(=O)(=O)CC(=O)N(C)C)c(Cl)cc1Cl	inconclusive: 15.8%
CCN1CCN(Cc2ccc(NC(=O)c3ccc(C)c(NC(=O)C(=O)c4c[nH]c5ccccc45)c3)cc2C(F)(F)F)CC1	inconclusive: 15.8%
CSc1ccc(C2c3[nH]c4ccccc4c3CCN2C(=O)c2cc(C)n(C)n2)cc1 (stereo unspecified)	inconclusive: 17.6%
COc1ccccc1OCCCCn1c(C(C)O)nc2ccccc21 (stereo unspecified)	inconclusive: 12.7%

SMILES	inhibition
O=C(c1cccc(Cl)c1)N(Cc1cccs1)C1CCS(=O)(=O)C1 (stereo unspecified)	inconclusive: 39.6%
COc1ccccc1NS(=O)(=O)c1ccc(O)cc1	inconclusive: 24.5%
Cn1cnc(NCc2ccccc2)c1[N+](=O)[O-]	inactive: 3.96%
N#CC1=C(N)NC(SCc2ccc(Br)cc2)=C(C#N)C12CCCCC2	inconclusive: 14.5%
CCOC(=O)N1CCC(N2CCCC(CO)(Cc3cccc(Cl)c3)C2)CC1 (stereo unspecified)	inactive: 7.89%
Cc1ccc(N(CC(=O)NC(C)c2ccccc2)S(=O)(=O)c2c(C)n[nH]c2C)cc1 (stereo unspecified)	inconclusive: 12.8%
CCOC(=O)N1CCN(c2cc(=O)n(Cc3ccc(F)cc3)c(=O)[nH]2)CC1	inconclusive: 20.8%
C[C@H]1CN([C@@H](C)CO)C(=O)c2cccc(NC(=O)Nc3ccc(C(F)(F)F)cc3)c2O[C@@H]1CN(C)S(=O)(=O)c1ccc(Cl)cc1	active: 34%
NC(=O)C1CCN(C(=O)Nc2csc3ccccc23)CC1	inactive: -7.31%
Cc1c(CNCC(C)c2ccccc2)c(C(=O)O)c(C)n1Cc1ccccc1 (stereo unspecified)	inconclusive: 10.3%
C[C@]12c3[nH]c4ccccc4c3CCN1C(=O)C(CC(=O)NCc1cccc(C(F)(F)F)c1)C[C@@H]2C(=O)N1CCCCC1 (stereo partly specified)	inconclusive: 25.1%
O=C(CSc1nnc(CNC(=O)c2ccccc2F)o1)c1ccc(Cl)cc1	inconclusive: 27.1%
CCOc1cc(C(=O)NCC(C)(C)CNC(=O)c2cc(OCC)c(OCC)c(OCC)c2)cc(OCC)c1OCC	inconclusive: 25.6%
Cc1cccc(NC(=O)c2nc[nH]c2C(=O)N[C@@H](CC(C)C)C(=O)OC(C)(C)C)c1	inconclusive: 25.3%
COc1ccc(-n2c(SCC(=O)C(C)(C)C)nc3c(sc(=S)n3-c3ccccc3)c2=O)c(OC)c1	inactive: 1.07%
N=C(N)c1ccc(/C=C/c2ccc(C(=N)N)cc2O)cc1	active: 50.3%
CCCCCCCCCCCCCCCC(O)C(N)CO (stereo unspecified)	inconclusive: 24.8%
O=Cc1cn(-c2ccccc2)nc1-c1cc2c(ccc3ccccc32)oc1=O	inactive: 1.34%
O=C(CSc1nnc(-c2ccncc2)o1)Nc1cc(Cl)ccc1C(=O)O	inactive: -0.715%
Cc1cccc(NC(=S)/N=C(\N)Nc2nc(C)c3ccc(C)cc3n2)c1	inactive: 10.3%

6 entries picked at random from those above:
SMILES	inhibition
Cc1cc(C(=O)Cn2cnc3cc([N+](=O)[O-])ccc3c2=O)c(C)n1CC1CCCO1 (stereo unspecified)	inconclusive: 27.8%
N=C(N)c1ccc(/C=C/c2ccc(C(=N)N)cc2O)cc1	active: 50.3%
Cn1cnc(NCc2ccccc2)c1[N+](=O)[O-]	inactive: 3.96%
CCN(CC(=O)Nc1cc(Cl)ccc1C)C(=O)C1CC1	inactive: -0.491%
CC[n+]1c(/C=C/C=C/N(C(C)=O)c2ccccc2)sc2cc(OC)ccc21	active: 45.2%
C[C@H]1CN([C@@H](C)CO)C(=O)c2cccc(NC(=O)Nc3ccc(C(F)(F)F)cc3)c2O[C@@H]1CN(C)S(=O)(=O)c1ccc(Cl)cc1	active: 34%
